Taken from: PubChem BioAssay AID652259 (Drosophila RNAi Screening Center, 2013)
Screen: 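Genome-wide hunt for genes that control Wingless pathway activity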 (primary screen). System: Drosophila clone 8 imaginal disc epithelial cells. Knock-down reagent: long dsRNA against Drosophila genes. Conditions: pathway stimulated by co-transfected Wingless expression plasmid. Read-out: 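Firefly luciferase from a tcf-site Wingless reporter, measured alongside co-transfected Renilla luciferase that tracks transfection; pathway stimulated by a Wingless plasmid; the firefly-to-Renilla ratio is not deposited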. Scale: firefly reporter light: higher = more Wg reporter light, before normalisation; Renilla control light: higher = more transfected or surviving cells. Hit rule: 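Strong candidates differ from their plate mean by at least two out of four per-plate statistical tests; weak candidates meet just one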. Calls: active = candidate regulator (raises or lowers reporter); inactive = not a candidate.
The deposit covers about 22,000 reagents; below is a random part of those with a known target gene and a result. Of all reagents, 233 (1.1%) are marked active. 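Light values are raw, unnormalised plate reads; the ratio scores behind the reporter calls were not deposited.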 A number with no mark means an inactive call. The numbers tell different reagents against one gene apart. A plus sign joins genes that one reagent is predicted to hit. No sequences are given here. The record does not give: the amount of reagent, the time to read-out, the dose of the treatment.

With knock-down of CG13185, the screen gave firefly reporter light, replicate 1 = 6848; Renilla control light, replicate 1 = 2372.
Against Not10, the values are firefly reporter light, replicate 1 = 4854; Renilla control light, replicate 1 = 2344.
Hsp70Bc showed firefly reporter light, replicate 1 = 11793; Renilla control light, replicate 1 = 3173.
With knock-down of BORCS5 the results were firefly reporter light, replicate 1 = 3172; firefly reporter light, replicate 2 = 7765; Renilla control light, replicate 1 = 1266; Renilla control light, replicate 2 = 2779.
Silencing of mbm came out at: firefly reporter light, replicate 1 = 15062; Renilla control light, replicate 1 = 4756.
Depletion of Obp56a gave: firefly reporter light, replicate 1 = 6432; Renilla control light, replicate 1 = 2272.
With knock-down of Kua, the screen gave firefly reporter light, replicate 1 = 4723; firefly reporter light, replicate 2 = 10194; Renilla control light, replicate 1 = 929; Renilla control light, replicate 2 = 3170.
RSG7 #1 scored firefly reporter light, replicate 1 = 25840; Renilla control light, replicate 1 = 11280.
After knock-down of RSG7 #2 the results were firefly reporter light, replicate 1 = 5.13e5; firefly reporter light, replicate 2 = 5.47e5; Renilla control light, replicate 1 = 2.01e5; Renilla control light, replicate 2 = 2.20e5.
Depletion of CG2691 gave: firefly reporter light, replicate 1 = 1957; firefly reporter light, replicate 2 = 5527; Renilla control light, replicate 1 = 956; Renilla control light, replicate 2 = 2144.
For AdamTS-A #1 the deposit lists firefly reporter light, replicate 1 = 2583; Renilla control light, replicate 1 = 1719.
Depletion of AdamTS-A #2 gave: firefly reporter light, replicate 1 = 16995; Renilla control light, replicate 1 = 5532.
With knock-down of CG10068, the record shows firefly reporter light, replicate 1 = 8160; Renilla control light, replicate 1 = 2496.
Silencing of MICU1 gave: firefly reporter light, replicate 1 = 8304; Renilla control light, replicate 1 = 3352.
Depletion of CG9649 gave: firefly reporter light, replicate 1 = 8945; Renilla control light, replicate 1 = 3690.
After knock-down of lace the results were firefly reporter light, replicate 1 = 8896; Renilla control light, replicate 1 = 2851.
After knock-down of CG15312, the screen gave firefly reporter light, replicate 1 = 2204; firefly reporter light, replicate 2 = 5157; Renilla control light, replicate 1 = 640; Renilla control light, replicate 2 = 1531.
For Est-Q, the values are firefly reporter light, replicate 1 = 6125; Renilla control light, replicate 1 = 2786.
mRpS18B showed firefly reporter light, replicate 1 = 14137; Renilla control light, replicate 1 = 4129.
After knock-down of CG30398 the results were firefly reporter light, replicate 1 = 16424; Renilla control light, replicate 1 = 8849.
For RpL19, the values are firefly reporter light, replicate 1 = 11397; Renilla control light, replicate 1 = 2394.
Depletion of CG5662 came out at: firefly reporter light, replicate 1 = 4160; Renilla control light, replicate 1 = 1321.
Silencing of CG13339 came out at: firefly reporter light, replicate 1 = 5984; Renilla control light, replicate 1 = 2088.
Depletion of sm #1 resulted in: firefly reporter light, replicate 1 = 20042; Renilla control light, replicate 1 = 10299.
After knock-down of sm #2, the screen gave firefly reporter light, replicate 1 = 7275; Renilla control light, replicate 1 = 3046.
CAH8 scored firefly reporter light, replicate 1 = 33771; Renilla control light, replicate 1 = 6664.
With knock-down of CG5062 the results were firefly reporter light, replicate 1 = 25826; Renilla control light, replicate 1 = 11904.
CG43397 + CG12902 scored firefly reporter light, replicate 1 = 3184; firefly reporter light, replicate 2 = 8923; Renilla control light, replicate 1 = 710; Renilla control light, replicate 2 = 3430.
Against Npc2a, the entry reads firefly reporter light, replicate 1 = 2242; firefly reporter light, replicate 2 = 6540; Renilla control light, replicate 1 = 759; Renilla control light, replicate 2 = 2246.
Silencing of CG12567 came out at: firefly reporter light, replicate 1 = 19024; Renilla control light, replicate 1 = 12912.
Against Rpi the deposit lists firefly reporter light, replicate 1 = 4088; firefly reporter light, replicate 2 = 8295; Renilla control light, replicate 1 = 487; Renilla control light, replicate 2 = 2233.
eEF1delta gave firefly reporter light, replicate 1 = 11814; Renilla control light, replicate 1 = 2026.

No new results follow: 3 of the entries above.
AdamTS-A #2 | firefly reporter light, replicate 1: 16995; Renilla control light, replicate 1: 5532
CG10068 | firefly reporter light, replicate 1: 8160; Renilla control light, replicate 1: 2496
MICU1 | firefly reporter light, replicate 1: 8304; Renilla control light, replicate 1: 3352
